No constants are given. Whether binding was seen depends on the method and setting. Binding seen in cells or lysates may run through a third protein. Some results given as binding are weak or reduced against the parent protein; the word gives no strength.

By UniProt entry, the sequences of proteins in these tests, tags left out.
UniProt A0A096MJY4: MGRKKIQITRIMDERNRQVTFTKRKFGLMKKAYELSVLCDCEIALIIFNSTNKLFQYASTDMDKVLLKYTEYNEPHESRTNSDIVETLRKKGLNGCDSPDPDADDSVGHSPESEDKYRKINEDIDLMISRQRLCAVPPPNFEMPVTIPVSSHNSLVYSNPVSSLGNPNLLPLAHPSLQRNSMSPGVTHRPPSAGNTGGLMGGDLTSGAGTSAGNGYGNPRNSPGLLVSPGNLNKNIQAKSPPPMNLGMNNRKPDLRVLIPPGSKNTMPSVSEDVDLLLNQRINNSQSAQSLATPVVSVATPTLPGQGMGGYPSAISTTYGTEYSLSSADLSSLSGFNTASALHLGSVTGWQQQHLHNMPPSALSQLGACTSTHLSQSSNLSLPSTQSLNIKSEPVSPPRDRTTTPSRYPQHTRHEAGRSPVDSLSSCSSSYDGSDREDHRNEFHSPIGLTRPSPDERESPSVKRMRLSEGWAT

The test addresses T1, NFATc3 (rat (endogenous in neonatal rat cardiomyocytes)).
T1 sequence: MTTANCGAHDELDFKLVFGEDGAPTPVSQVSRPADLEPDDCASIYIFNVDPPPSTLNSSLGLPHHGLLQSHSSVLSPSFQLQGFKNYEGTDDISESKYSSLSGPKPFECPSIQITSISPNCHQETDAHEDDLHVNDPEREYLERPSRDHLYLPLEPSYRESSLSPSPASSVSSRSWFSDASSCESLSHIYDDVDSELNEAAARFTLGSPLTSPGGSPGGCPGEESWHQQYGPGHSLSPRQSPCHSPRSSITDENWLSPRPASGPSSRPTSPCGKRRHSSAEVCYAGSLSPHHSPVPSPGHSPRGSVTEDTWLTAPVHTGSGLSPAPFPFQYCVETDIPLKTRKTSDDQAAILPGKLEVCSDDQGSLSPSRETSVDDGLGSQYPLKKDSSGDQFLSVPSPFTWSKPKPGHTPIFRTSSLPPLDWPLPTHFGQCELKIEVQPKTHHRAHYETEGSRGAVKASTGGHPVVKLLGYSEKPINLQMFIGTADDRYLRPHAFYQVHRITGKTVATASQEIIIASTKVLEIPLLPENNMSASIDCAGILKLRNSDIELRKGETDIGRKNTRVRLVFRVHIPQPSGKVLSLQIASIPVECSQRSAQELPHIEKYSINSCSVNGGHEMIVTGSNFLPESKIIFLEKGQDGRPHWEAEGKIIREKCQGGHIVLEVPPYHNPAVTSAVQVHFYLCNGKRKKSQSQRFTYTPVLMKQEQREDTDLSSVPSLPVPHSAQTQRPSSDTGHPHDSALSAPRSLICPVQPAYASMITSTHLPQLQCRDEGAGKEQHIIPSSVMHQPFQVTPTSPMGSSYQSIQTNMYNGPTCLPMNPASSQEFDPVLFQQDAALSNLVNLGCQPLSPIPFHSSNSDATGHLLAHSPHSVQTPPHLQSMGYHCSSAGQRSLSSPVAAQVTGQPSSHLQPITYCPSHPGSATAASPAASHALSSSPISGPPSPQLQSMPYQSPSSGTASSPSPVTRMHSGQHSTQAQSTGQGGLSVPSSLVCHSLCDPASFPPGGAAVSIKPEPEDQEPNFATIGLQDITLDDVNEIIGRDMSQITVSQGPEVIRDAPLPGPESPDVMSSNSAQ
As to the kind of experiment: co-IP; 1 mg protein extract of neonatal rat cardiomyocytes (RIPA buffer) immunoprecipitated overnight at 4°C with 5 μg anti-NFAT (ab 2722) or anti-MEF-2c (C-21X), recovered on Protein A Sepharose CL-4B, Western blot with anti-MEF-2c.

In the case of MEF-2c (from UniProt A0A096MJY4 1-473), the binding entry is recorded as “binds”.
